The source of these data is publication PMC8216277.

Amino acid sequences for entries named in this document (tags omitted).
UniProt P62304: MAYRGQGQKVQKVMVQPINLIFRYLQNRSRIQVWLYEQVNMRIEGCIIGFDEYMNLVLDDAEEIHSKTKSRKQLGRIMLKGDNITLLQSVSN
UniProt P62308: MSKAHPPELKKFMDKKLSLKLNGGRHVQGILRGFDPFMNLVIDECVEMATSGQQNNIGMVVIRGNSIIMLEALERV

These are yes or no findings as the source states them, for the method shown. Some entries that bind do so weakly or less than the wild type.

This test deals with Sm E (UniProt P62304). The experiment in a line: production and purification as a complex; Sm proteins produced in bacteria as heterodimers or trimer (six cultures for ten proteins), purified by chromatography; details in the supplementary materials.

For the substance Sm G (from UniProt P62308 1-76), the binding result is “binds”.
